For the experiment, the target named is RNase E (PA2976) of P. aeruginosa PAO1 with a C-terminal Strep-tag II (P. aeruginosa PAO1) (UniProt Q9HZM8). Nature of the experiment: affinity purification with mass spectrometry; Strep-tag II on the C-terminus of chromosomal RNase E in P. aeruginosa PAO1 as bait; cells infected with one of seven phages; eluates on SDS-PAGE, gel slices, ESI-MS/MS.

Amino acid sequences for entries named in this document (tags omitted).
UniProt Q9HZM8: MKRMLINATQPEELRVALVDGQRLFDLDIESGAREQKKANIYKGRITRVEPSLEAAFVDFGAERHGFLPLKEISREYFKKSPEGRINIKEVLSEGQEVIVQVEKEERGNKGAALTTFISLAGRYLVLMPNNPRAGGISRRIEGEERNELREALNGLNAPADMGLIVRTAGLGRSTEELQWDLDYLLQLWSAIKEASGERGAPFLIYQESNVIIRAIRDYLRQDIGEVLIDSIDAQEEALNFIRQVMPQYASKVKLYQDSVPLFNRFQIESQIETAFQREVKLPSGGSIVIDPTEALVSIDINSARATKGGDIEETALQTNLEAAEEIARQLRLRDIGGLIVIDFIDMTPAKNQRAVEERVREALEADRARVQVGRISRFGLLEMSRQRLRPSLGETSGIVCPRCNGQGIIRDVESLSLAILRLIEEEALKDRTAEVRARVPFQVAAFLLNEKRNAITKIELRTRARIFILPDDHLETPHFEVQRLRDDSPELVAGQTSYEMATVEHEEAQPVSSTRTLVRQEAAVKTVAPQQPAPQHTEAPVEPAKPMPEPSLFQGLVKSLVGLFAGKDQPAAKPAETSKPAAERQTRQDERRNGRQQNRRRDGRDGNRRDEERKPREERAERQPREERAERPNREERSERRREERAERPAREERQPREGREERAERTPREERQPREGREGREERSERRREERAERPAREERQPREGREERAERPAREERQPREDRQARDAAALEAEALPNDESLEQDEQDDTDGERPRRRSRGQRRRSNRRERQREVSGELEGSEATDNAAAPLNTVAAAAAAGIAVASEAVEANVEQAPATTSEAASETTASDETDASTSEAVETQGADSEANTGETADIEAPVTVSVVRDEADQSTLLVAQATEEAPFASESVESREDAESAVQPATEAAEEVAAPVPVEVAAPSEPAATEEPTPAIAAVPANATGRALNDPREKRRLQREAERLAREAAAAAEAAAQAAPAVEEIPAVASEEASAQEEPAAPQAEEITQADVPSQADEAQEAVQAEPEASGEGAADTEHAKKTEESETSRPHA

No constants are given. Whether binding was seen depends on the method and setting. Binding seen in cells or lysates may run through a third protein. A yes stands for co-enrichment or nearness to the bait. Other partners may have been found.

B1: PNPase (polynucleotide phosphorylase) of P. aeruginosa, endogenous (enzyme, UniProt Q9HV59 1-701)
chain: MNPVTKQFQFGQSTVTLETGRIARQATGAVLVTMDDVSVLVTVVGAKSPAEGRDFFPLSVHYQEKTYAAGRIPGGFFKREGRPSEKETLTSRLIDRPIRPLFPEGFMNEVQVVCTVVSTNKKSDPDIAAMIGTSAALAISGIPFAGPIGAARVGFHPEIGYILNPTYEQLQSSSLDMVVAGTEDAVLMVESEADELTEDQMLGAVLFAHDEFQAVIRAVKELAAEAGKPAWDWKAPAENTVLVNAIKAELGEAISQAYTITIKQDRYNRLGELRDQAVALFAGEEEGKFPASEVKDVFGLLEYRTVRENIVNGKPRIDGRDTRTVRPLRIEVGVLGKTHGSALFTRGETQALVVATLGTARDAQLLDTLEGERKDAFMLHYNFPPFSVGECGRMGSPGRREIGHGRLARRGVAAMLPTQDEFPYTIRVVSEITESNGSSSMASVCGASLALMDAGVPVKAPVAGIAMGLVKEGEKFAVLTDILGDEDHLGDMDFKVAGTDKGVTALQMDIKINGITEEIMEIALGQALEARLNILGQMNQVIAKPRAELSENAPTMLQMKIDSDKIRDVIGKGGATIRGICEETKASIDIEDDGSVKIYGETKEAAEAAKLRVLAITAEAEIGKIYVGKVERIVDFGAFVNILPGKDGLVHISQISDKRIDKVTDVLQEGQEVKVLVLDVDNRGRIKLSIKDVAAAEASGV
As to B1, the binding result was “binds”.

B2: DeaD of P. aeruginosa, endogenous (enzyme, UniProt Q9I003 1-567)
chain: MGLCGCIRGKPMTQETVGFAALGIHPNVLAAIVAVGYEEPSPIQAQSIPLILEGHDMIGQAQTGTGKTAAFALPLLSRIDPSRREPQMLVLVPTRELALQVATACETYSKQLPGVGVVAVYGGAPMGPQLKALRQGAQILVATPGRLCDHLRRDEKLLATVQRLVLDEADEMLKLGFMDDLEVIFEALPESRQTVLFSATLPASIRGIAERHLKQPKHVKIAAKTQTVARIEQVHLMVHADQKAGSIQRLLEVEQFDALIAFVRTKQATLDYAELLERQGYRAAALNGDMPQAQRERVIESLKDGSLDIVIATDVAARGLDVPRITHVLNIDMPYDPESYVHRIGRTGRAGREGRALLLVTPRERRMLQVIERVTGQKVGEVRLPDAETVLEARLARLAASLTPLLDSAVEQRGAVRDELCRRLGCDAETLAAALLARLTAGKALDLESVRREQPLTPSAPRERADRGERGERPERSGERRPMAPPSEGRARCRTALGARDGVAAKNLLGAILNEGGLSREDIGRIQIRDTFSLIELPEANLERLLTKLKDTRVAGKALRLRRYRED
Turning to B2, the binding result was “binds”.
